Results reported in publication PMC3088721, “The Saccharomyces cerevisiae Telomerase Subunit Est3 Binds Telomeres in a Cell Cycle– and Est1–Dependent Manner and Interacts Directly with Est1 In Vitro” (PLoS Genetics, 2011).
No constants are given. Whether binding was seen depends on the method and setting. Where a sequence is shown, tags or fusion partners need not be part of it.

Amino acid sequences for entries named in this document (tags omitted). Residues count along the entry.
UniProt P02769, residues 25-607: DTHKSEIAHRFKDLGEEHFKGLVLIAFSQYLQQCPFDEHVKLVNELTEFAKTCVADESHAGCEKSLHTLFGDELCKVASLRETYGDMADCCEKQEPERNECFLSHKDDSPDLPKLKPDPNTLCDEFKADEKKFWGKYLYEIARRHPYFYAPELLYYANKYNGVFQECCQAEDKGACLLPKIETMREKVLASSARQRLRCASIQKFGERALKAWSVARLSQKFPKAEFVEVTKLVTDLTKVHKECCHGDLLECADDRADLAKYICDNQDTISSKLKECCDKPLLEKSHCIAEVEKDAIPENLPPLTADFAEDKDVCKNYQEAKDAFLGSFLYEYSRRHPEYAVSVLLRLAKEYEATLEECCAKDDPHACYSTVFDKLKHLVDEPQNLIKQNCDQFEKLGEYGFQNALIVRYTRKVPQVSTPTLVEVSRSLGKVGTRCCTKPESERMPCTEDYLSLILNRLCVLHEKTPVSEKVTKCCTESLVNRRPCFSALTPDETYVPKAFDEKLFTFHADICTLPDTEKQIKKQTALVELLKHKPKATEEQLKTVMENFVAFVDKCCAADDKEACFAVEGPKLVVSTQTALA

Biological target: T1, Est1, C-terminally strep-tagged (S. cerevisiae, UniProt P17214 1-699)
T1 construct: Est1, telomerase subunit of Saccharomyces cerevisiae; The carboxyl terminal tag consists of a G8 linker, 5x Strep-Tag II and a HAT tag (Clontech); also called Strep-tagged Est1; not shown: 5x Strep-Tag II, C-terminal, kept; HAT tag, C-terminal, kept
T1 sequence (looked up): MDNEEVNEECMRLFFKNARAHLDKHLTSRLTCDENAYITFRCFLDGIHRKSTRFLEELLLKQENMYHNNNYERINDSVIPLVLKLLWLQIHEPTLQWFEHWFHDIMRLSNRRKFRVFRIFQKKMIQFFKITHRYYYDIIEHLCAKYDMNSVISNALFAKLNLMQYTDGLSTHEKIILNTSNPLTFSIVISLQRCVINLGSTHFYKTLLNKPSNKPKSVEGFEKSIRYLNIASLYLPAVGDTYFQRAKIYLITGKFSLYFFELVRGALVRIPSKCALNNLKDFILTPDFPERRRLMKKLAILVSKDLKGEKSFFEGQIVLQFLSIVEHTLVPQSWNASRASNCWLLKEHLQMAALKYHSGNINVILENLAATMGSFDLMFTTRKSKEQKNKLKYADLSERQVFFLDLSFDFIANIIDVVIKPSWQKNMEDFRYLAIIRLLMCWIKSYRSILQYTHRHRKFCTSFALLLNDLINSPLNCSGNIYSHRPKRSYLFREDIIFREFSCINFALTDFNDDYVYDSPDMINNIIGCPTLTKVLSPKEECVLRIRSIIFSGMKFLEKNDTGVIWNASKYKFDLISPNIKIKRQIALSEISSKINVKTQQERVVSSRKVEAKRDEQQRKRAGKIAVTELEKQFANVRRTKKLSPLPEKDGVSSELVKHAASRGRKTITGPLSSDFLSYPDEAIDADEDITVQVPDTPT
Assay: pull-down; magnetic beads pull-down: Est1 captured by its C-terminal strep tag on Dynabeads streptavidin M280; 1 µM each of Est1 and Est3 in 20 mM Tris-HCl pH 7.5, 100 mM NaCl, 0.2% Triton X-100, 20 µg/mL BSA; 15 min on ice, 30 min with beads at 4°C; Coomassie staining; both purified

binding: no binding (tested: 20 µg/mL BSA)
Substance: BSA (from UniProt P02769 25-607)
